According to the supplement of paper PMC10032668:
Some of the results follow. The list holds hits alone, and they repeat only in part.

Amino acid sequences for entries named in this document (tags omitted).
ATP6V0D1, P61421, UniProt P61421, whole entry: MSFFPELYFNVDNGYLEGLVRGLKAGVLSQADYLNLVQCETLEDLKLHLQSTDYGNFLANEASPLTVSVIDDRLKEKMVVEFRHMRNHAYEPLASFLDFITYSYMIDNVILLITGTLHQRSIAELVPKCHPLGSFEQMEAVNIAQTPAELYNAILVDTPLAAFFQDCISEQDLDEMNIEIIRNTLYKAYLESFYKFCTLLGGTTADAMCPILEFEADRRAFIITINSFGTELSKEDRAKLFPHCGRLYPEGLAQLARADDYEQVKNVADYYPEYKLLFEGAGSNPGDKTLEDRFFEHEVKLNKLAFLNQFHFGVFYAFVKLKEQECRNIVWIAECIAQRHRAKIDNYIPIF
HIST1H1E, P10412, UniProt P10412, whole entry: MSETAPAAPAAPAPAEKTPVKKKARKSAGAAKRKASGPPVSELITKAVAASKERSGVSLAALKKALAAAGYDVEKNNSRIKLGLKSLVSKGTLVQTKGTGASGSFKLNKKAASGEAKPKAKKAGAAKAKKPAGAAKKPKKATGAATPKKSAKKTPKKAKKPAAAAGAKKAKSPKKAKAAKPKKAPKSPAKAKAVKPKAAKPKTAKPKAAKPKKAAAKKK
SP1, P08047, UniProt P08047, whole entry: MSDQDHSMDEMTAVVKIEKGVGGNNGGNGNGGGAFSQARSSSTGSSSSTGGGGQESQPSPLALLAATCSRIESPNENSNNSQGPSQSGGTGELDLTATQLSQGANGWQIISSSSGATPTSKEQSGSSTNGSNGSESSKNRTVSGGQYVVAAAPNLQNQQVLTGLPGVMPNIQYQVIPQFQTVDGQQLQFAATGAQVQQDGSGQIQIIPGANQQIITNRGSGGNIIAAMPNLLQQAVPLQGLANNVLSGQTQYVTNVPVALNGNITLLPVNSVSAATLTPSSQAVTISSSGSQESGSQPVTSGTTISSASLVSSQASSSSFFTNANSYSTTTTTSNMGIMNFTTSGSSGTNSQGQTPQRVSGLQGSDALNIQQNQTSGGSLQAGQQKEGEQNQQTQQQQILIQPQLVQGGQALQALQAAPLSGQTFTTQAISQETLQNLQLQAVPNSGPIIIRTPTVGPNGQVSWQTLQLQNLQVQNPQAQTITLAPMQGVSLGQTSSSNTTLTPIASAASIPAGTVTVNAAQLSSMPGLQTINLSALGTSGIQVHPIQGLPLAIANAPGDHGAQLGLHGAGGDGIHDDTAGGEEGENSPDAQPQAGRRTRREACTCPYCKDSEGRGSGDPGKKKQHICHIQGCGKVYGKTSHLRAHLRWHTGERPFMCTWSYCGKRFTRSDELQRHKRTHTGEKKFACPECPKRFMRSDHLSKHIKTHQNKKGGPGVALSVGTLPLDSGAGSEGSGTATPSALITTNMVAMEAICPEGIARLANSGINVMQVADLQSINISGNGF
CBFB, Q13951, UniProt Q13951, whole entry: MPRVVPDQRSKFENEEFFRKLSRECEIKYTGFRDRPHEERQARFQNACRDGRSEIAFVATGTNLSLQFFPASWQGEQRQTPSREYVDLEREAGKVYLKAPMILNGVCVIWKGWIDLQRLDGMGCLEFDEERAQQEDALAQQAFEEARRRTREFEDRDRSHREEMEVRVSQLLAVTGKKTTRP
COIL, P38432, UniProt P38432, whole entry: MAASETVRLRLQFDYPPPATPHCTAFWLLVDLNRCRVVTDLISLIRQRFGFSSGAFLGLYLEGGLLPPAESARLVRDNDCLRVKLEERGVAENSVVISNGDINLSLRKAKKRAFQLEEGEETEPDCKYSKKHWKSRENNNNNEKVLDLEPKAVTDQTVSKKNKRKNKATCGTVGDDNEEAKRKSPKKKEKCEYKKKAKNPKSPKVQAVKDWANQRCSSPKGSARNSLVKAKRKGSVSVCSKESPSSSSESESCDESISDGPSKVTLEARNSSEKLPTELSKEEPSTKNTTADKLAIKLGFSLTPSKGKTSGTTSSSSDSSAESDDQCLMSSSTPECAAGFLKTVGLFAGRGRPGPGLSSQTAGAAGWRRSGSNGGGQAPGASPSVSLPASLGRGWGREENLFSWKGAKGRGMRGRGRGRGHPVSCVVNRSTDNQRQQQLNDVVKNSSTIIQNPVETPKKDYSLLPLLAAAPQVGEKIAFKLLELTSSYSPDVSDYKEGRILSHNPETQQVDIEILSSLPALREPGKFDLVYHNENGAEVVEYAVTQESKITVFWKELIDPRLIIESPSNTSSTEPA
DCTN1, Q14203, UniProt Q14203, whole entry: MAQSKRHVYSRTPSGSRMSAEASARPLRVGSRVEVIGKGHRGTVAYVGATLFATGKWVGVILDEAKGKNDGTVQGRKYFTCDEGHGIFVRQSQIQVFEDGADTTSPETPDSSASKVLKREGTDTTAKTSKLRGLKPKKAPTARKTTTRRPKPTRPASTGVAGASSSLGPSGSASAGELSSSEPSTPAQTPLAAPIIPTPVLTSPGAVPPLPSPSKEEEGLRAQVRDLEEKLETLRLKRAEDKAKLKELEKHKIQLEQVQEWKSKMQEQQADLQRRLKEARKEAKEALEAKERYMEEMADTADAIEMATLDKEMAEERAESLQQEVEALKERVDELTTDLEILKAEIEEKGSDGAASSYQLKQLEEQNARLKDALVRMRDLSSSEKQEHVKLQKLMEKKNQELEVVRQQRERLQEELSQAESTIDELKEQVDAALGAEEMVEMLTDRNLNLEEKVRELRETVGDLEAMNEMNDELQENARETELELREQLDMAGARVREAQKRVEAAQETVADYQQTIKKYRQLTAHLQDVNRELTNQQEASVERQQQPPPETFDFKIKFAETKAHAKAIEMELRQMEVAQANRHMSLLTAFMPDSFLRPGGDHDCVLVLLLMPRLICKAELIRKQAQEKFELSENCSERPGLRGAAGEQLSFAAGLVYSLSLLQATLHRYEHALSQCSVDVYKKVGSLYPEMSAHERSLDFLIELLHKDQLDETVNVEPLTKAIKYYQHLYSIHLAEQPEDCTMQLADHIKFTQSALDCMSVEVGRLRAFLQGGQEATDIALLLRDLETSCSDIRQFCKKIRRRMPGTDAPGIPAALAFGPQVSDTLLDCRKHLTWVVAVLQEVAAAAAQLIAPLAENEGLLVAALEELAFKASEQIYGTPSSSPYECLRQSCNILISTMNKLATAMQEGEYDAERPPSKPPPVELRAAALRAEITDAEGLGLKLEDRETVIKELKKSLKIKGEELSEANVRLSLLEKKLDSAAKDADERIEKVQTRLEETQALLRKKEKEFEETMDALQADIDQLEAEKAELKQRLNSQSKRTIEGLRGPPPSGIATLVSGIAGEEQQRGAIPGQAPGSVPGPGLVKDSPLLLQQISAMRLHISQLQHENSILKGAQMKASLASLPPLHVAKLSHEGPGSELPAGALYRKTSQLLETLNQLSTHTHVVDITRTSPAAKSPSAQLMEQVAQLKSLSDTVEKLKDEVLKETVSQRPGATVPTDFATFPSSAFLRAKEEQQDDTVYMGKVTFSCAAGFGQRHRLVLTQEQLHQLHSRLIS
DDX54, Q8TDD1, UniProt Q8TDD1, whole entry: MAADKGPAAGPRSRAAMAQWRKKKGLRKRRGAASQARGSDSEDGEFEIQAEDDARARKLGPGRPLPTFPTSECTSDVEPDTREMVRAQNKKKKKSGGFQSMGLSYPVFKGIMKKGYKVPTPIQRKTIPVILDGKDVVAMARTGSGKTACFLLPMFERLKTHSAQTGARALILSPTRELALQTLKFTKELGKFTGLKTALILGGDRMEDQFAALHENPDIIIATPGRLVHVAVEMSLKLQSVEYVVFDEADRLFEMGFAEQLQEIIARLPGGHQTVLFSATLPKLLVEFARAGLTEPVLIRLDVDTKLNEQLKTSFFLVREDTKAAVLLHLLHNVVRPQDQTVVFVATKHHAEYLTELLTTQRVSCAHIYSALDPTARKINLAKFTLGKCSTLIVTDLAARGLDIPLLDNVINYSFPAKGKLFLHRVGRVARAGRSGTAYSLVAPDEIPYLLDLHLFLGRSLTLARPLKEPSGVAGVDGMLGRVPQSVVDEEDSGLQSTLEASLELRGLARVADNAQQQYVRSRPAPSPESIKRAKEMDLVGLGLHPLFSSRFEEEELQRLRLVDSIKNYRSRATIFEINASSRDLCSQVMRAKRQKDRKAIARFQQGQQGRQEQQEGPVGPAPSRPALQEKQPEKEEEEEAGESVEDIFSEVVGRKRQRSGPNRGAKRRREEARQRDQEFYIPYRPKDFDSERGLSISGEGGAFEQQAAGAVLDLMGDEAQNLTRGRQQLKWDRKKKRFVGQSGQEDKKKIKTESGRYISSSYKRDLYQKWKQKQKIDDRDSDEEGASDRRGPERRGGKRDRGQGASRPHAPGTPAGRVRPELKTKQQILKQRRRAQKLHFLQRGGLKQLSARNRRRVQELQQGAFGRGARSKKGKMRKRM
EIF2B4, Q9UI10, UniProt Q9UI10, whole entry: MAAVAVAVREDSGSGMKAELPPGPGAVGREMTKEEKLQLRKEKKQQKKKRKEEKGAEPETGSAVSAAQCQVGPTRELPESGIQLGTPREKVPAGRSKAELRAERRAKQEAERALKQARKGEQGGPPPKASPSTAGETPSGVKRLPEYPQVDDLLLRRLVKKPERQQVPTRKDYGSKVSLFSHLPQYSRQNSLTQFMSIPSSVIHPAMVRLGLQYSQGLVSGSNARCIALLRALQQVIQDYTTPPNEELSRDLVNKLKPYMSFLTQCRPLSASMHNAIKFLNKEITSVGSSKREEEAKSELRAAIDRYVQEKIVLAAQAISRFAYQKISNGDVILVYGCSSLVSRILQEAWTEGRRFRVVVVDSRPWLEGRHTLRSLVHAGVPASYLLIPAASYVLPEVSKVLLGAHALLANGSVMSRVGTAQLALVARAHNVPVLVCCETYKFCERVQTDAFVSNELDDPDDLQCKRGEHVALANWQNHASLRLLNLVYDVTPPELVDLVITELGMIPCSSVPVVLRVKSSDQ
LRPAP1, P30533, UniProt P30533, whole entry: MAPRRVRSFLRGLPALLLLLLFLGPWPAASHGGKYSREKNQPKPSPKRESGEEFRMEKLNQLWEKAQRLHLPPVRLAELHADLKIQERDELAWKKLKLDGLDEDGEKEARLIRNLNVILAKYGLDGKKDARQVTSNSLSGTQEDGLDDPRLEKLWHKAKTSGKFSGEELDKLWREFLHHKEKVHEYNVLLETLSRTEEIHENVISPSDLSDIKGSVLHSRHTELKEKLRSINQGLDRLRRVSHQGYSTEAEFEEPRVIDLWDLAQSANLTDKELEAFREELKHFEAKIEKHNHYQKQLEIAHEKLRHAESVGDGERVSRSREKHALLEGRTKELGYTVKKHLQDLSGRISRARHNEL
NDUFA13, Q9P0J0, UniProt Q9P0J0, whole entry: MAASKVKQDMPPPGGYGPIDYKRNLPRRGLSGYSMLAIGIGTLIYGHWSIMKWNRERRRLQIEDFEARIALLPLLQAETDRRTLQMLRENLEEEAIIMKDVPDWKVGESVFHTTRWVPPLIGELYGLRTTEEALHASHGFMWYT
NEDD8, Q15843, UniProt Q15843, whole entry: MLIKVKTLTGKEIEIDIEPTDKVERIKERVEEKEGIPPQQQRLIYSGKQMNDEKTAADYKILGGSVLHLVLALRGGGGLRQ
SMARCB1, Q12824, UniProt Q12824, whole entry: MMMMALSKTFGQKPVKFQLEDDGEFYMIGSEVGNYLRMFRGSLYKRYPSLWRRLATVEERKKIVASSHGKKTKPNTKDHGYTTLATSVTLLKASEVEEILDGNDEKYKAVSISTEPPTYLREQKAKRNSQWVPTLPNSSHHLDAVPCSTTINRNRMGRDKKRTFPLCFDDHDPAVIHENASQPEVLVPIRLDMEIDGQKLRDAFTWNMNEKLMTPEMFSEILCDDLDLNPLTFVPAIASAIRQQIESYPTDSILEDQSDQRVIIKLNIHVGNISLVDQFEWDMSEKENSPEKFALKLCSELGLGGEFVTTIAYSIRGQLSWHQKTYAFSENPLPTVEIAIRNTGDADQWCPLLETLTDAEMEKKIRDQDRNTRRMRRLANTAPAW
SMARCE1, Q969G3, UniProt Q969G3, whole entry: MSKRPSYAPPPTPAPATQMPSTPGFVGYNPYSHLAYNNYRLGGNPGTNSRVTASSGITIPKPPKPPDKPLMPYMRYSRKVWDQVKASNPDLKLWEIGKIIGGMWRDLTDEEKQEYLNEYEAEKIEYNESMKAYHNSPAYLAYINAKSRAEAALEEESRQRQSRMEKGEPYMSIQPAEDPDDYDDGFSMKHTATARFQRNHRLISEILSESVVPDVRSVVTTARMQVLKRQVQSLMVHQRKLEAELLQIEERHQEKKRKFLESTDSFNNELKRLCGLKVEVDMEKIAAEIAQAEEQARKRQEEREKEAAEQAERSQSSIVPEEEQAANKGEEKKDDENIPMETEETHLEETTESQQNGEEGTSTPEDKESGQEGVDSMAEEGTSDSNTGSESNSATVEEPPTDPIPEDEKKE
SRSF1, Q07955, UniProt Q07955, whole entry: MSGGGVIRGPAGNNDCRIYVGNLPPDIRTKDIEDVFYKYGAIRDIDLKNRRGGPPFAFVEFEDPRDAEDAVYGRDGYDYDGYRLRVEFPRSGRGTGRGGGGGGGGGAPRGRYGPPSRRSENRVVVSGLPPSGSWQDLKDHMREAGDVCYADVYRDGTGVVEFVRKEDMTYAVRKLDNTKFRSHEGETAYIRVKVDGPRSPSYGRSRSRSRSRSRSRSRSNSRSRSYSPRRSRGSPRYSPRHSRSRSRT
TMEM97, Q5BJF2, UniProt Q5BJF2, whole entry: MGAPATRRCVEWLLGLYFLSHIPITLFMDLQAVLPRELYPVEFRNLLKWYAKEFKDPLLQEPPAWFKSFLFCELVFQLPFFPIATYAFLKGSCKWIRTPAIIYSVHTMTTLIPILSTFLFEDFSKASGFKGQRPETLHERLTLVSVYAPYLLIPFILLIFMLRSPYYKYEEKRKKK

How the values were obtained:
Experiment in all cases: PRISMA enrichment of interactor (LFQ) in peptide spot vs all other peptide spots (log2 fold change); higher = stronger / more specific binding of the interactor to the peptide
ATP6V0D1, P61421 = molecular target: ATP6V0D1, P61421
Procedure: (§1)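 PRISMA: 15-aa overlapping tiles (offset 8 aa) of 60 microproteins, plus SOS1/GLUT1 control peptides, were spot-synthesized on cellulose membranes in triplicate. Membranes were incubated with benzonase-treated HEK293T lysate, and bound proteins were identified by LC-MS/MS with LFQ. Enrichment is the log2 fold change of each protein in one spot versus all other spots. Only interactors passing the significance cutoff are listed.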

C19orf53, Q9UNZ5 = molecular target: C19orf53, Q9UNZ5
Procedure: as §1

CSNK1A1, P48729 = molecular target: CSNK1A1, P48729
Procedure: as §1

EXOSC10, Q01780 = molecular target: EXOSC10, Q01780
Procedure: as §1

FGA, P02671 = molecular target: FGA, P02671
Procedure: as §1

HERC5, Q9UII4 = molecular target: HERC5, Q9UII4
Procedure: as §1

HIST1H1E, P10412 = molecular target: HIST1H1E, P10412
Procedure: as §1

HOMER2, Q9NSB8 = molecular target: HOMER2, Q9NSB8
Procedure: as §1

HTATSF1, O43719 = molecular target: HTATSF1, O43719
Procedure: as §1

KIF18A, Q8NI77 = molecular target: KIF18A, Q8NI77
Procedure: as §1

MRPS14, O60783 = molecular target: MRPS14, O60783
Procedure: as §1

MRPS6, P82932 = molecular target: MRPS6, P82932
Procedure: as §1

NXT1, Q9UKK6 = molecular target: NXT1, Q9UKK6
Procedure: as §1

ORC4, O43929 = molecular target: ORC4, O43929
Procedure: as §1

SCP2, P22307 = molecular target: SCP2, P22307
Procedure: as §1

SOAT1, P35610 = molecular target: SOAT1, P35610
Procedure: as §1

SP1, P08047 = molecular target: SP1, P08047
Procedure: as §1

TMEM256-PLSCR3 = molecular target: TMEM256-PLSCR3
Procedure: as §1

ZRANB2, O95218 = molecular target: ZRANB2, O95218
Procedure: as §1

CBFB, Q13951 = molecular target: CBFB, Q13951
Procedure: as §1

CKAP4, Q07065 = molecular target: CKAP4, Q07065
Procedure: as §1

COIL, P38432 = molecular target: COIL, P38432
Procedure: as §1

COPS2, P61201 = molecular target: COPS2, P61201
Procedure: as §1

DCTN1, Q14203 = molecular target: DCTN1, Q14203
Procedure: as §1

DDX27, Q96GQ7 = molecular target: DDX27, Q96GQ7
Procedure: as §1

DDX54, Q8TDD1 = molecular target: DDX54, Q8TDD1
Procedure: as §1

DRG1, Q9Y295 = molecular target: DRG1, Q9Y295
Procedure: as §1

EIF2B4, Q9UI10 = molecular target: EIF2B4, Q9UI10
Procedure: as §1

EIF5B, O60841 = molecular target: EIF5B, O60841
Procedure: as §1

GATA3, P23771 = molecular target: GATA3, P23771
Procedure: as §1

GATA6, Q92908 = molecular target: GATA6, Q92908
Procedure: as §1

GCLM, P48507 = molecular target: GCLM, P48507
Procedure: as §1

GMPS, P49915 = molecular target: GMPS, P49915
Procedure: as §1

HNRNPUL1, Q9BUJ2 = molecular target: HNRNPUL1, Q9BUJ2
Procedure: as §1

KRT18, P05783 = molecular target: KRT18, P05783
Procedure: as §1

LRPAP1, P30533 = molecular target: LRPAP1, P30533
Procedure: as §1

LYZ, P61626 = molecular target: LYZ, P61626
Procedure: as §1

MAGEB2, O15479 = molecular target: MAGEB2, O15479
Procedure: as §1

MARCKSL1, P49006 = molecular target: MARCKSL1, P49006
Procedure: as §1

MAT1A, Q00266 = molecular target: MAT1A, Q00266
Procedure: as §1

MAT2A, P31153 = molecular target: MAT2A, P31153
Procedure: as §1

MRPL58, Q14197 = molecular target: MRPL58, Q14197
Procedure: as §1

MRPS34, P82930 = molecular target: MRPS34, P82930
Procedure: as §1

NDUFA13, Q9P0J0 = molecular target: NDUFA13, Q9P0J0
Procedure: as §1

NEDD8, Q15843 = molecular target: NEDD8, Q15843
Procedure: as §1

NKAP, Q8N5F7 = molecular target: NKAP, Q8N5F7
Procedure: as §1

NSUN5, Q96P11 = molecular target: NSUN5, Q96P11
Procedure: as §1

OSGEP, Q9NPF4 = molecular target: OSGEP, Q9NPF4
Procedure: as §1

POLR2C, P19387 = molecular target: POLR2C, P19387
Procedure: as §1

POP1, Q99575 = molecular target: POP1, Q99575
Procedure: as §1

RAB5C, P51148 = molecular target: RAB5C, P51148
Procedure: as §1

RANGAP1, P46060 = molecular target: RANGAP1, P46060
Procedure: as §1

SAFB, Q15424 = molecular target: SAFB, Q15424
Procedure: as §1

SIRT1, Q96EB6 = molecular target: SIRT1, Q96EB6
Procedure: as §1

SMARCB1, Q12824 = molecular target: SMARCB1, Q12824
Procedure: as §1

SMARCE1, Q969G3 = molecular target: SMARCE1, Q969G3
Procedure: as §1

SMC1A, Q14683 = molecular target: SMC1A, Q14683
Procedure: as §1

SNRPA1, P09661 = molecular target: SNRPA1, P09661
Procedure: as §1

SNX4, O95219 = molecular target: SNX4, O95219
Procedure: as §1

SPTAN1, Q13813 = molecular target: SPTAN1, Q13813
Procedure: as §1

SRSF1, Q07955 = molecular target: SRSF1, Q07955
Procedure: as §1

STAT1, P42224 = molecular target: STAT1, P42224
Procedure: as §1

TBCD, Q9BTW9 = molecular target: TBCD, Q9BTW9
Procedure: as §1

TBL2, Q9Y4P3 = molecular target: TBL2, Q9Y4P3
Procedure: as §1

TENT4B, Q8NDF8 = molecular target: TENT4B, Q8NDF8
Procedure: as §1

TMEM97, Q5BJF2 = molecular target: TMEM97, Q5BJF2
Procedure: as §1

TMPO = molecular target: TMPO
Procedure: as §1

YTHDC2, Q9H6S0 = molecular target: YTHDC2, Q9H6S0
Procedure: as §1

YTHDF3, Q7Z739 = molecular target: YTHDF3, Q7Z739
Procedure: as §1

YWHAG, P61981 = molecular target: YWHAG, P61981
Procedure: as §1

ZFR, Q96KR1 = molecular target: ZFR, Q96KR1
Procedure: as §1

EMHFASSRNLPDDPE [RP11-432J24.5_2]
PRISMA enrichment of interactor (log2) (ATP6V0D1, P61421): 8.19 | PRISMA enrichment of interactor (log2) (C19orf53, Q9UNZ5): 7 | PRISMA enrichment of interactor (log2) (CSNK1A1, P48729): 4.89 | PRISMA enrichment of interactor (log2) (EXOSC10, Q01780): 5.6 | PRISMA enrichment of interactor (log2) (FGA, P02671): 5.23 | PRISMA enrichment of interactor (log2) (HERC5, Q9UII4): 4.62 | PRISMA enrichment of interactor (log2) (HIST1H1E, P10412): 7.62 | PRISMA enrichment of interactor (log2) (HOMER2, Q9NSB8): 4.13 | PRISMA enrichment of interactor (log2) (HTATSF1, O43719): 5.57 | PRISMA enrichment of interactor (log2) (KIF18A, Q8NI77): 5.57 | PRISMA enrichment of interactor (log2) (MRPS14, O60783): 5 | PRISMA enrichment of interactor (log2) (MRPS6, P82932): 4.34 | PRISMA enrichment of interactor (log2) (NXT1, Q9UKK6): 4.66 | PRISMA enrichment of interactor (log2) (ORC4, O43929): 8.23 | PRISMA enrichment of interactor (log2) (SCP2, P22307): 5.87 | PRISMA enrichment of interactor (log2) (SOAT1, P35610): 5.58 | PRISMA enrichment of interactor (log2) (SP1, P08047): 3.85 | PRISMA enrichment of interactor (log2) (TMEM256-PLSCR3): 4.1 | PRISMA enrichment of interactor (log2) (ZRANB2, O95218): 4.98

HRPASTYPSVLENRA [LINC01128]
PRISMA enrichment of interactor (log2) (ATP6V0D1, P61421): 5.78 | PRISMA enrichment of interactor (log2) (CBFB, Q13951): 5.06 | PRISMA enrichment of interactor (log2) (CKAP4, Q07065): 4.69 | PRISMA enrichment of interactor (log2) (COIL, P38432): 6.11 | PRISMA enrichment of interactor (log2) (COPS2, P61201): 4.56 | PRISMA enrichment of interactor (log2) (DCTN1, Q14203): 6.64 | PRISMA enrichment of interactor (log2) (DDX27, Q96GQ7): 5.15 | PRISMA enrichment of interactor (log2) (DDX54, Q8TDD1): 5.86 | PRISMA enrichment of interactor (log2) (DRG1, Q9Y295): 5.25 | PRISMA enrichment of interactor (log2) (EIF2B4, Q9UI10): 4.9 | PRISMA enrichment of interactor (log2) (EIF5B, O60841): 6.29 | PRISMA enrichment of interactor (log2) (GATA3, P23771): 4.61 | PRISMA enrichment of interactor (log2) (GATA6, Q92908): 4.97 | PRISMA enrichment of interactor (log2) (GCLM, P48507): 5.53 | PRISMA enrichment of interactor (log2) (GMPS, P49915): 4.32 | PRISMA enrichment of interactor (log2) (HNRNPUL1, Q9BUJ2): 4.33 | PRISMA enrichment of interactor (log2) (KRT18, P05783): 5.58 | PRISMA enrichment of interactor (log2) (LRPAP1, P30533): 4.43 | PRISMA enrichment of interactor (log2) (LYZ, P61626): 3.92 | PRISMA enrichment of interactor (log2) (MAGEB2, O15479): 7.25 | PRISMA enrichment of interactor (log2) (MARCKSL1, P49006): 5.16 | PRISMA enrichment of interactor (log2) (MAT1A, Q00266): 7.24 | PRISMA enrichment of interactor (log2) (MAT2A, P31153): 5.58 | PRISMA enrichment of interactor (log2) (MRPL58, Q14197): 4.02 | PRISMA enrichment of interactor (log2) (MRPS34, P82930): 4.29 | PRISMA enrichment of interactor (log2) (NDUFA13, Q9P0J0): 7.94 | PRISMA enrichment of interactor (log2) (NEDD8, Q15843): 6.65 | PRISMA enrichment of interactor (log2) (NKAP, Q8N5F7): 4.26 | PRISMA enrichment of interactor (log2) (NSUN5, Q96P11): 5.92 | PRISMA enrichment of interactor (log2) (OSGEP, Q9NPF4): 3.9 | PRISMA enrichment of interactor (log2) (POLR2C, P19387): 4.52 | PRISMA enrichment of interactor (log2) (POP1, Q99575): 6.8 | PRISMA enrichment of interactor (log2) (RAB5C, P51148): 5.14 | PRISMA enrichment of interactor (log2) (RANGAP1, P46060): 7.09 | PRISMA enrichment of interactor (log2) (SAFB, Q15424): 5.21 | PRISMA enrichment of interactor (log2) (SIRT1, Q96EB6): 5.22 | PRISMA enrichment of interactor (log2) (SMARCB1, Q12824): 4.92 | PRISMA enrichment of interactor (log2) (SMARCE1, Q969G3): 4.39 | PRISMA enrichment of interactor (log2) (SMC1A, Q14683): 5.55 | PRISMA enrichment of interactor (log2) (SNRPA1, P09661): 4.44 | PRISMA enrichment of interactor (log2) (SNX4, O95219): 7.28 | PRISMA enrichment of interactor (log2) (SPTAN1, Q13813): 6.89 | PRISMA enrichment of interactor (log2) (SRSF1, Q07955): 5.74 | PRISMA enrichment of interactor (log2) (STAT1, P42224): 6.01 | PRISMA enrichment of interactor (log2) (TBCD, Q9BTW9): 5.61 | PRISMA enrichment of interactor (log2) (TBL2, Q9Y4P3): 5.01 | PRISMA enrichment of interactor (log2) (TENT4B, Q8NDF8): 4.5 | PRISMA enrichment of interactor (log2) (TMEM97, Q5BJF2): 5.06 | PRISMA enrichment of interactor (log2) (TMPO): 6.25 | PRISMA enrichment of interactor (log2) (YTHDC2, Q9H6S0): 4.23 | PRISMA enrichment of interactor (log2) (YTHDF3, Q7Z739): 7.7 | PRISMA enrichment of interactor (log2) (YWHAG, P61981): 4.9 | PRISMA enrichment of interactor (log2) (ZFR, Q96KR1): 5.14
